Assay results: article PMC7714431
Construct, isoform or probe ends are uncertain for at least one entry. For some assays here: At least one verdict was read from the data and is not stated in words by the source.

What was measured:
[1] = test system: RNA polymerase II (purified, for individual RNA bandshifts) (Homo sapiens); assay: EMSA; settings: 10 mM Mg2+, 10 uM Zn2+; EMSA: 10-100 nM Pol II, 0.2 nM RNA, 10 mM HEPES, 2 mM Tris pH 7.25, 1 mM KCl, 10 mM MgCl2, 10 uM ZnCl2, 10 mM DTT, 5% glycerol, 1 mg/ml BSA, RT 30 min, 4% native gel; native protein; label: 32P body-label (GTP)
[2] = test system: RNA polymerase II (Jena Biosciences) (Homo sapiens); assay: competition filter binding; settings: 0-100 nM B2 partially outcompetes 10 nM labeled cycle 7 RNA pool, 5 nM Pol II; EMSA: 10-100 nM Pol II, 0.2 nM RNA, 10 mM HEPES, 2 mM Tris pH 7.25, 1 mM KCl, 10 mM MgCl2, 10 uM ZnCl2, 10 mM DTT, 5% glycerol, 1 mg/ml BSA, RT 30 min, 4% native gel; commercial protein; label: unlabeled in filter competition

Q: Does “AUUCGAUGAUUCCAUUCGAUUCCAUUCGCUGAUUCCUUUUGAUUCCAUUCGAUGAUCAUUCCAUUCAAUUCCAUUCAAUGAUUUCAUUUGAUUCCAAUCGAUGAUGAUUCCAUUCAAGGCCAUUUGAUGAUUCCAUUUGAUUCCAUUCGAUGGUGAUUCCAUCCAAUGCCAUUGAUGAUUCAUUCGAUUUCAUUCAAUGAUGAUUUCAUUCUAUUCCAUUCGAUGAUUCUAUUUGAUUCCAUUUGA [HSATIII RAP]” bind [1]?
A: binds

Q: Does “CUUGUCUAGGCUCUGCCUACAGGGGGCUUGUGACAUAUCUCUGCACUGAUCACCCAGGUGAUAUAACUCUUCUCUAGGAUCUGCCUACAG [Beta Sat RAP]” bind [1]?
A: binds

Q: Does “GAUUCCAUUCGAUGAUGAUUGCAUUCGAAUCCAUGGAUUAUUCCAUUCCAUUCCAUUAGAUGAUUCCAUUCGAGUCCAUUCGAUGAUUCUCUUCGAUUCCAUUCGAUAAUUCCGUUUG [HSATII RAP]” bind [1]?
A: binds

Q: Does “GGGCUGGUGAGAUGGCUCAGUGGGUAAGAGCACCCGACUGCUCUUCCGAAGGUCAGGAGUUCAAAUCCCAGCAACCACAUGGUGGCUCACAACCAUCCGUAACGAGAUCUGAUUCCCUCUUCUGGAGUGUCUGAAGACAGCUACAGUGUACUUACAUAUAAUAAAUAAAUAAAUCUUU [B2 RNA]” bind [2]?
A: binds

Q: Does “UCAUGUAAGGCUAGACAGAAGAAUUCUCAGUAACUUCCUUGUGUUGUGUGUAUUCAACUCACAGAGUUGAACGUUCCUUU [Alpha Sat RAP]” bind [1]?
A: binds
